From paper PMC10307939 (Pharmacology Research & Perspectives, 2023)

What was measured:
[1] = molecular target: mouse kappa opioid receptor (Mus musculus, UniProt P33534); test: Radioligand competition binding, mKOR‐CHO membranes; details: K i at KOR divided by K i at MOR
[2] = molecular target: T1, human delta‐opioid receptor (Homo sapiens, UniProt P41143); test: Radioligand competition binding, hDOR‐CHO membranes; details: K i at DOR divided by K i at MOR
[3] = molecular target: T1, human delta‐opioid receptor; test: Ligand‐stimulated [35S]GTPγS binding, hDOR‐CHO membranes; type: biochemical
male and female ICR mice = test: Horizontal locomotor activity, 60‐min session; type: in vivo; details: Mus musculus, sc

SMILES: CN1c2ccccc2C(NCCCCCCC(=O)O)c2ccc(Cl)cc2S1(=O)=O (stereo not shown) [Tianeptine, reference compound]
- MOR/KOR (fold selectivity for MOR over KOR) [1]: >50 000 fold
- MOR/DOR (fold selectivity for MOR over DOR) [2]: 36.2 fold
- MOR/DOR (fold selectivity for MOR over DOR) ([2]; listed as tianeptine): more than 30 fold
- Fold difference in [35S]GTPγS potency, MOR versus DOR ([3]; higher potency at MOR than at DOR): 3 fold
- Emax ([3]; read-out: DOR E max): 103 ± 3.72%
- Emax (male and female ICR mice; 1 h, read-out: E max (95%CL), % Methadone E max): 103%
- ED50 (male and female ICR mice; read-out: ED50 (95% CL)): 18.3 mg/kg
